Data reported in PubChem BioAssay AID493014 (National Center for Advancing Translational Sciences (NCATS), 2011).
The whole screen tested about 340,000 compounds, of which about 170 (0.05%) were called active. Inconclusive results, whose numbers are uncertain, are shown with a selection of clear calls. The call rests on the fitted dose curve; in most records, active means well fitted inhibition curve with a large enough effect in the signal ratio, with a control signal flat (not every such curve was filed as active); inconclusive means small, poorly fitted or top-dose-only effect, or effect the other way, or a change in a side signal; inactive means flat fitted curve, though single readings scatter; the % refers to the signal ratio. A potency beside an inconclusive call is a rough fit, not a confirmed value.

test: qHTS Assay to Find Inhibitors of Chronic Active B-Cell Receptor Signaling; settings: ABC-DLBCL IkBa-CBG/CBR reporter, luminescence ratio (green luciferase fused to IkBa over red control in TMD8 lymphoma cells), 4 h; activity change, negative = inhibition: at 46.1 µM (top of the series);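 on activity change, negative = inhibition: plate controls were basal doxycycline-induced cells for no effect and cells given 10 µM MG132 for full effect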
Procedure, shortened: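 TMD8 human ABC-DLBCL cells with doxycycline-inducible IκBα–green luciferase fusion and unfused red luciferase, in 0.5% FBS medium; compounds up to 46 uM, 4 h at 37C. Green/red luminescence ratio, filter-overlap corrected, fitted to concentration-response curves.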
Potency means the concentration at half of the fitted maximal effect.

| Structure (SMILES) | Potency | activity change, negative = inhibition |
| --- | --- | --- |
| COc1c(F)c(F)c(C(=O)Nc2ccc(N3CCN(C(C)=O)CC3)c(Cl)c2)c(F)c1F | inconclusive: 29.1 µM [falling, single point] | – |
| O=C(Nc1ccc(-c2csc(Nc3ccc(Cl)cc3)n2)cc1)c1cccc(C(F)(F)F)c1 | – | inconclusive: 15.1% |
| Cc1ccccc1/C=C/C(=O)c1ccc([N+](=O)[O-])o1 | – | inconclusive: 24.8% |
| O=C(O)C1CC(=O)N(C2CCCCC2)C1c1ccccc1 (stereo unspecified) | – | inconclusive: 9.33% |
| Cc1ccc(Nc2ncnc3sccc23)c(C)c1 | inconclusive: 28.2 µM [falling, single point] | – |
| Cc1cccc(/C=N/NC(=O)CNc2cccc3ccccc23)n1 | – | inconclusive: -14.3% |
| Cc1cc(Cl)c2oc(C(=O)N(C)C3CCOC3)c(C)c2c1 (stereo unspecified) | – | inconclusive: 0% |
| Cc1ccc(-n2c(N)c(C(N)=O)sc2=S)cc1 | inconclusive: 13 µM [falling, partial curve] | – |
| CC(=O)Nc1ccc2[nH]ccc2c1 | – | inactive: 5.57% |
| O=C(OCC(=O)N1CCc2ccccc21)c1c2c(nc3ccccc13)CCCCC2 | – | inactive: 0.938% |
| COc1ccc(NC(=O)COC(=O)CCCN2C(=O)c3ccccc3C2=O)cc1Cl | – | inconclusive: 11.5% |
| Cn1c(=O)c(/C=C/c2ccc(F)cc2)nc2ccccc21 | – | inactive: -23.4% |
| C/C(=N\NC(=O)c1cccnc1)c1cc2ccccc2o1 | inconclusive: 20 µM [falling, single point] | – |
| CCn1c2ccccc2c2cc(NC(=O)COC(=O)c3cccc(S(=O)(=O)NC)c3)ccc21 | – | inconclusive: -5.75% |
| CC(C)Cn1cnc2c(c1=O)c1nc3ccccc3nc1n2Cc1ccc2c(c1)OCO2 | – | inactive: 29.4% |
| CC(=O)Nc1ccc(S(=O)(=O)NC(CC(=O)NC2CCCCC2C)C(C)C)cc1 (stereo unspecified) | – | inconclusive: 5.38% |
| O=C(Nc1ccncc1)c1c(Cl)cccc1Cl | – | inconclusive: -1.9% |
| COc1ccc2c(c1[N+](=O)[O-])CCC/C2=N/OC(=O)c1cccc2ccccc12 | inconclusive: 3.55 µM [rising, full curve, poor fit] | – |
| Cc1ccc(-c2cn(-c3ccccc3)c3[n+]2CCCS3)cc1 | – | inactive |
| CCOC(=O)C(CC)Sc1nc2c(c(=O)[nH]c(=O)n2C)n1C/C=C(/C)Cl (stereo unspecified) | – | inconclusive: 14.8% |
| CC(C)(C)OC(=O)NCCCC[C@H](NC(=O)c1[nH]cnc1C(=O)Nc1ccc(Cl)cc1)C(=O)OC(C)(C)C | – | inactive: 5.36% |

Given as comma-separated lines: part of the list above.
Structure (SMILES),Potency,"activity change, negative = inhibition"
C/C(=N\NC(=O)c1cccnc1)c1cc2ccccc2o1,"inconclusive: 20 µM [falling, single point]",–
CCn1c2ccccc2c2cc(NC(=O)COC(=O)c3cccc(S(=O)(=O)NC)c3)ccc21,–,inconclusive: -5.75%

Next part.

| Structure (SMILES) | Potency | activity change, negative = inhibition |
| --- | --- | --- |
| COc1cccc(/C=N/NC(=O)c2ccc(-n3cnnn3)cc2)c1 | inconclusive: 29.1 µM [falling, partial curve, poor fit] | – |
| O=c1ccc2cc(S(=O)(=O)N3CCN(c4ccc(Cl)cc4)CC3)ccc2o1 | – | inconclusive: 0.802% |
| CC(C)c1ccc(NC(=O)C2CC3CCC2C3)cc1 (stereo unspecified) | – | inactive: -0.821% |
| CCN(CC)S(=O)(=O)c1ccc(N2CCOCC2)c(NC(=O)c2ccco2)c1 | – | inactive: -5.13% |
| N#CC1=C(N)SC(N)=C(C#N)C1C1C=CCCC1 (stereo unspecified) | – | inconclusive: -11.7% |
| CC(=O)c1ccc(NS(=O)(=O)c2cccc(C)c2)cc1 | – | inconclusive: 2.99% |
| Cc1occc1C(=O)N1CCCC(Nc2ccc(C(C)C)cc2)C1 (stereo unspecified) | – | inconclusive: -1.53% |
| CN1C(=S)N(c2cccnc2)C(=O)/C1=C\c1ccc(N(C)C)cc1 | – | inconclusive: 5.47% |
| Cc1oc(-c2ccc(C(F)(F)F)cc2)nc1CN(Cc1ccccn1)C[C@@H]1CCC(=O)N1 | – | inconclusive: -8.07% |
| COc1cc(/C=C/C(=O)Nc2nnc(CC(C)(C)C)s2)cc(OC)c1OC | – | inactive: 5.69% |
| Cc1occc1C(=O)N/N=C/c1ccc(N(C)C)cc1 | – | inconclusive: 209% |
| Cc1onc(-c2ccccc2Cl)c1C(=O)c1ccccc1 | – | inactive: 1.34% |
| COc1cc(OC)c(C(=O)Nc2cccc3ccccc23)cc1OC | – | inconclusive: 3.55% |
| Cc1ccc(N(CC(=O)NC2CCCC2)C(=O)CNC(=O)c2cccs2)cc1C | – | inconclusive: -1.34% |
| O=c1[nH]c2ccc(Br)cc2c(-c2ccccc2)c1N1CCOCC1 | – | inactive: 18.5% |
| O=C(Nc1ccc(F)cc1)c1nsc(Cl)c1Cl | inconclusive: 23.1 µM [falling, single point] | – |
| CSc1ccccc1NC(=O)CN(C)Cc1ccc(Br)cc1 | inconclusive: 18.4 µM [falling, partial curve, poor fit] | – |
| COc1ccc(-c2nn(-c3ccccc3)cc2C(=O)Nc2cccc(C(=O)O)c2)cc1[N+](=O)[O-] | – | inconclusive: -9.2% |
| COc1ccc(Nc2nc3ccccc3n3cnnc23)cc1 | inconclusive: 0.92 µM [rising, full curve, poor fit] | – |
| COc1ccc(CCNC(=O)C(=O)NCC(c2cccs2)S(=O)(=O)c2ccc(F)cc2)cc1 (stereo unspecified) | inconclusive: 1.41 µM [falling, partial curve, poor fit] | – |
